We go through 44 compounds from PubChem BioAssay AID662 (National Center for Advancing Translational Sciences (NCATS), 2007).

SMILES strings stand for the structures. The list shows a part of the results. The main result of the screen is listed elsewhere. These columns were measured beside it and carry no call. Most of these compounds were active or inconclusive in the main read-out, so they are no random draw. The note in brackets gives the kind of curve behind each potency; many fits are weak.

The nature of this assay: Cell signaling CRE-BLA (Fsk stim). The note with it: CHO CRE-bla reporter (cAMP response element driving beta-lactamase), forskolin EC10, beta-lactamase ratio; measured here: 460 nm blue channel. An outline of the steps: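 Cells were plated overnight at 37 °C, exposed to compound titrations plus EC10 NKH 477 for 3 h, then given CCF4 dye for 2 h at room temperature. Blue/green (460/530 nm) ratio was converted to %Activity and AC50 values calculated.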
As usually defined, the AC50 is the midpoint of the concentration-response curve, whichever way the signal moves. Turning to `Cc1nc(SCC(=O)N2CCCc3ccccc32)c2oc3ccccc3c2n1`, the AC50 was 1.26 µM [rising, partial curve].

For `CC1(C)Cc2c(C#N)c(N3CCCC3)nc(-c3ccco3)c2CO1`, the AC50 was 10 µM [rising, partial curve].

Regarding `CNc1cc(OC)c(C(=O)N[C@@H]2CCN(Cc3ccccc3)[C@H]2C)cc1Cl`, the AC50 is 12.6 µM [rising, single point].

Take `O=C(NCc1nc2ccccc2[nH]1)c1ccc(Cl)c(S(=O)(=O)N2CCCC2)c1`: the AC50 was 0.126 µM [falling, full curve, poor fit].

On to `CCOC(=O)CSc1nc2c(c(=O)n1-c1ccc(OC)cc1)SCC2`, for which the AC50 was 12.6 µM [rising, partial curve].

With `CCOc1ccc(NS(=O)(=O)c2ccc3[nH]cc(C(=O)NC(C)CC)c(=O)c3c2)cc1` (centres undefined), the AC50 is 0.126 µM [falling, full curve, poor fit].

On to `O=C(NC1(C(=O)NC2CCCCC2)CCCCC1)c1ccc2c(c1)OCO2`, for which the AC50 was 3.98 µM [falling, single point].

Regarding `COCCN(CCOC)c1nc(C)nc2c1nc(-c1ccccc1)n2CCN(C)C`, the AC50 was 25.1 µM [rising, single point].

As for `Clc1ccccc1OCc1nn2c(-c3ccncc3)nnc2s1`, the AC50 is 10 µM [rising, partial curve].

For `COCCn1c(=O)c(-c2ccc(F)cc2)nc2cnc(Oc3ccc(OC)cc3)nc21`, the AC50 is 12.6 µM [rising, partial curve].

Regarding `Cc1cccc(/C=C\c2ccccc2)n1`, the AC50 was 12.6 µM [falling, single point].

`Nc1cc(=O)[nH]c(SCc2nc3ccccc3n2Cc2ccccc2)n1`: the AC50 is 0.501 µM [rising, full curve].

With `CCNc1ncc2nc(-c3ccccc3)c(=O)n(Cc3ccc(F)cc3)c2n1`, the AC50 was 12.6 µM [rising, partial curve].

For `CN(C)CCCc1cc(C(=O)Nc2ccc(-c3ccncc3)cc2)ccc1O`, the AC50 is 0.0316 µM [rising, full curve, poor fit].

Regarding `OCCN(Cc1ccccc1)Cc1ccccc1F`, the AC50 was 0.00794 µM [falling, full curve, poor fit].

In the case of `C/C(Nc1cccc(F)c1)=C(/C#N)C(N)=O`, the AC50 was 12.6 µM [falling, partial curve, poor fit].

For the compound `CCCn1c(C)nc2c(NCc3ccccc3)nc(C)nc21`, the AC50 is 12.6 µM [rising, partial curve].

As to `CCCC(=O)Nc1cccc(-c2nc3cc(C)c(C)cc3o2)c1`, the AC50 was 5.01 µM [falling, single point].

For `CCOC(=O)CC(=O)CSc1ccc2nnc(-c3ccc(C)cc3)n2n1`, the concentration at half-maximal activity (AC50) was 10 µM [rising, partial curve].

Take `CC[C@@H](CO)Nc1nc(NCc2ccccc2)c2ncn(C(C)C)c2n1`: the AC50 is 25.1 µM [falling, single point].

Consider `Cn1cc(-c2nc3cnc(Oc4ccccc4)nc3n(CCC#N)c2=O)c2ccccc21`, for which the AC50 was 2.51 µM [rising, full curve].

Consider `CCCCN1CSC(=S)N(Cc2ccccc2)C1`, for which the AC50 was 0.794 µM [falling, single point].

Regarding `COCC(=O)Nc1nc2n(n1)C(c1ccc(Cl)cc1)CC(c1ccc(OC)cc1)N2` (centres undefined), the AC50 is 0.00398 µM [falling, full curve, poor fit].

`COC(=O)c1sc(NC(=O)c2ccc(Cn3cc(Cl)cn3)o2)c(C#N)c1C`: the AC50 is 1.58 µM [rising, full curve, poor fit].

As to `COc1ccccc1N(CC(=O)NC1CCCC1)C(=O)CCC(=O)Nc1cc(C)on1`, the AC50 is 0.1 µM [falling, single point].

As to `CC(=O)NCCn1c(C)cc2ccccc21`, the AC50 is 10 µM [rising, partial curve].

With `CCNc1nc(NCC)nc(OCCOC(=O)c2ccccc2)n1`, the AC50 was 12.6 µM [rising, partial curve].

`COc1cc(-c2n[nH]c(=O)o2)cc(OC)c1OC`: the AC50 is 10 µM [rising, single point].

With `O=C(Nc1ccc2nc(-c3ccc(Br)o3)[nH]c2c1)c1ccco1`, the AC50 was 7.94 µM [rising, partial curve].

Take `CCOC(=O)C1CCN(CC(=O)c2c(C)[nH]c3cc(C)ccc23)CC1`: the AC50 is 3.98 µM [falling, full curve].

Regarding `CCN(CC(=O)Nc1ccc2c(c1)OCO2)Cc1nc2ccccc2c(=O)[nH]1`, the AC50 is 10 µM [rising, single point].

For `COc1cccc(C(=O)N2CCSC2=S)c1`, the AC50 was 10 µM [falling, single point].

For the compound `COc1cccc(N2CCN(Cc3coc4c(Cl)cc(Cl)cc4c3=O)CC2)c1`, the AC50 is 7.94 µM [falling, single point].

`CCOC(=O)c1oc2ccccc2c1NC(=O)c1ccc2c(c1)OCO2`: the AC50 was 1.58 µM [rising, full curve].

Regarding `CCNc1ncc2nc(-c3ccc(OC)cc3)c(=O)n(CCC#N)c2n1`, the half-maximal activity concentration (AC50) was 10 µM [rising, partial curve].

Consider `O=C(CCc1ccccc1)NC1CCSC1=O` (centres undefined), for which the AC50 is 1 µM [rising, partial curve].

On to `CCOC(=O)C(C)Oc1cccc2c(=O)n(CC(=O)NCc3ccc4c(c3)OCO4)ccc12` (centres undefined), for which the AC50 was 3.16 µM [rising, single point].

Take `O=C(Nc1ccccc1N1CCCCC1)c1cccc(F)c1`: the AC50 was 15.8 µM [rising, partial curve].

For `CC(=O)C1=C(C)NC(SCC(=O)c2ccccc2)=C(C#N)C1c1ccco1` (centres undefined), the AC50 is 10 µM [rising, partial curve].

For the compound `Cc1ccccc1OCc1nnc2c3cnn(C)c3ncn12`, the AC50 was 3.16 µM [rising, single point].

On to `Cc1ccccc1-c1nc(CS(=O)CC(=O)NCCCN(C)c2ccccc2)c(C)o1` (centres undefined), for which the AC50 is 0.00398 µM [falling, full curve, poor fit].

Take `Cc1cccc2cc(C#N)c(SCC(=O)N3CCC(C)CC3)nc12`: the AC50 was 12.6 µM [rising, single point].

With `N#Cc1ccc(OC(=O)c2ccc(N=C(N)N)cc2)cc1`, the AC50 is 3.16 µM [falling, single point].

`O=S(=O)(c1cccc2cnccc12)N1CCCNCC1`: the AC50 was 15.8 µM [falling, partial curve].
